Values from PubChem BioAssay AID1259405 (NCATS, 2018).
Assay: 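Mouse-designed siRNAs used to find CHO productivity engineering targets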 (primary screen). Cells: Chinese hamster CHO-K1 ovary cells with stable secreted eGFP expression. Reagents: single siRNA against mouse genes, 0.8 pmol siRNA per well (2 µl of 400 nM stock). Timing: 3 days. Read-out: 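Per-well intracellular GFP measured by laser scanning cytometry, plus viability from ATP luminescence, each relative to plate median of non-targeting control wells, in %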. Direction: GFP, % of control: higher = more GFP per well, higher productivity; viability (ATP), % of control: higher = more viable cells (more ATP). Hit rule: 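Called active when intracellular GFP, relative to negative control, is at or above 120%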.
Shown is one part, drawn at random, of about 50,000 reagents. About 4,000 of them (8%) were called active. 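Mouse siRNA library applied to hamster cells; one well for each siRNA.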 Reagents against one gene are numbered here. Reagent sequences are not shown.

Ppm1m #1: GFP, % of control = 64; viability (ATP), % of control = 85.4; outcome = inactive
Ppm1m #2: GFP, % of control = 50.6; viability (ATP), % of control = 40; outcome = inactive
Ppm1m #3: GFP, % of control = 94.5; viability (ATP), % of control = 104; outcome = inactive
Gpx1 #1: GFP, % of control = 119; viability (ATP), % of control = 115; outcome = inactive
Gpx1 #2: GFP, % of control = 35.1; viability (ATP), % of control = 37.9; outcome = inactive
Gpx1 #3: GFP, % of control = 49.1; viability (ATP), % of control = 42.1; outcome = inactive
Xirp1 #1: GFP, % of control = 69.1; viability (ATP), % of control = 101; outcome = inactive
Xirp1 #2: GFP, % of control = 78.5; viability (ATP), % of control = 99.7; outcome = inactive
Xirp1 #3: GFP, % of control = 99.4; viability (ATP), % of control = 91.9; outcome = inactive
Or7a35 #1: GFP, % of control = 45.8; viability (ATP), % of control = 65.4; outcome = inactive
Or7a35 #2: GFP, % of control = 35.9; viability (ATP), % of control = 51.1; outcome = inactive
Or7a35 #3: GFP, % of control = 30; viability (ATP), % of control = 60.6; outcome = inactive

The list goes on (2 carried over from the part before).
Or7a35 #2: GFP, % of control = 35.9; viability (ATP), % of control = 51.1; outcome = inactive
Or7a35 #3: GFP, % of control = 30; viability (ATP), % of control = 60.6; outcome = inactive
Or12e1 #1: GFP, % of control = 74.8; viability (ATP), % of control = 48.4; outcome = inactive
Or12e1 #2: GFP, % of control = 89.1; viability (ATP), % of control = 82.4; outcome = inactive
Or12e1 #3: GFP, % of control = 66.3; viability (ATP), % of control = 78.1; outcome = inactive
Prxl2a #1: GFP, % of control = 68.8; viability (ATP), % of control = 65.2; outcome = inactive
Prxl2a #2: GFP, % of control = 54.6; viability (ATP), % of control = 75.1; outcome = inactive
Prxl2a #3: GFP, % of control = 93.2; viability (ATP), % of control = 98.2; outcome = inactive
